One molecule from US6884600 can be followed below.

No constants are given. Whether binding was seen depends on the method and setting. In cells and extracts the contact can be indirect. Some entries that bind do so weakly or less than the wild type. Sequences can lack the tags named with a protein.

This assay deals with T1, M110-(R714-I1004), C-terminal 291 residues of the chicken gizzard M110 subunit (chicken) (UniProt Q90623).
T1 sequence: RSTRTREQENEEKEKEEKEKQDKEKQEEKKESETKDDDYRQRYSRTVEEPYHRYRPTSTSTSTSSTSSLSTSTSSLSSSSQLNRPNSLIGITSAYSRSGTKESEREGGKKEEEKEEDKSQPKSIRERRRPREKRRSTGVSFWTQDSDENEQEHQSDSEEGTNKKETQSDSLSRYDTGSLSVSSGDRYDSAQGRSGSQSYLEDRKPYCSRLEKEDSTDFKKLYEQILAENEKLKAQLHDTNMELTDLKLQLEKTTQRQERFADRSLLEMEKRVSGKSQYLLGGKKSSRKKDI
Briefly: pull-down on glutathione-Sepharose.

B1: GST-M21 (protein, not shown: a dimerising Fc or GST; small tags and cut ends)
chain: MSSLFTRSKEYTRSRKSQSDSPPSSPSPIAKTLRHERLSRLEAATTPATSDSYSDRASSRSSAYSRRENRLAALSSRAEEESNRDYKKLYESALSENQKLKSKLQEAQLELADIKSKLEKAAQQKHEKTSDRSSMLEMEKREKRALERKLSEMEEEMKILTELKSDNQRLKDENGALIRVISKLSK
With B1, the binding entry is reported as “binds”.
